The values below come from patent publication EP1806142B1.

Sequences of proteins named here, by UniProt entry; tags and fusion partners are left off. Residues count along the entry.
UniProt O73885: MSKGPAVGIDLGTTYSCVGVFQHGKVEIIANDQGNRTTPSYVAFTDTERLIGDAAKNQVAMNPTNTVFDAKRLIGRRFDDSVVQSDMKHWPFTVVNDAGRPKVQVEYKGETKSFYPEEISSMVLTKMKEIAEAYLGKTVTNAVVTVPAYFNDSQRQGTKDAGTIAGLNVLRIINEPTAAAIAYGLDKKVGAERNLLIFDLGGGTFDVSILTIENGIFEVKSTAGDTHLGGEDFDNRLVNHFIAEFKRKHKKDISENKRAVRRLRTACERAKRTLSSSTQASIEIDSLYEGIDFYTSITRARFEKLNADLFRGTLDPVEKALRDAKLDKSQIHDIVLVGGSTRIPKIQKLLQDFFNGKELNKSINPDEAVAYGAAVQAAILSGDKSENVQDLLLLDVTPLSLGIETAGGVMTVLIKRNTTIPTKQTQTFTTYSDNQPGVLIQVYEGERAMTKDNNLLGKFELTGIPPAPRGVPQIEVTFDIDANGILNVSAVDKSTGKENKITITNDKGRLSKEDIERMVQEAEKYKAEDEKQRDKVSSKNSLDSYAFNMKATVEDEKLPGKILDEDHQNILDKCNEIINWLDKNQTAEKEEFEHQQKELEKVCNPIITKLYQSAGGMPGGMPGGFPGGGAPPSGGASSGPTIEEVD
UniProt P03070, residues 1-272: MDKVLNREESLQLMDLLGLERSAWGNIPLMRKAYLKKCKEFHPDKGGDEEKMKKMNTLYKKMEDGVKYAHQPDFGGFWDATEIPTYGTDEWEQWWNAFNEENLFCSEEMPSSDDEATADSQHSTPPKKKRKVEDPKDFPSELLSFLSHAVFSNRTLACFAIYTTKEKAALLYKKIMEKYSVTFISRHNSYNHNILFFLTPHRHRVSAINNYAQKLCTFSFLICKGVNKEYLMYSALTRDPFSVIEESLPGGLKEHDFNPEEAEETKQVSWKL

The experiment deals with Hsp73 of LMH cells (chicken hepatoma cells) (chicken) (UniProt O73885). Description: co-immunoprecipitation with mAb PAb108 from transfected LMH cells, SDS-PAGE, Coomassie Blue.

These are yes or no findings as the source states them, for the method shown. In cells and extracts the contact can be indirect. Some results given as binding are weak or reduced against the parent protein; the word gives no strength.

As to “N-terminal 272 residue T-Ag fragment T1-272 (from UniProt P03070 1-272)”, the binding result is “binds”.
